This note sets out measurements from publication doi:10.1101/556266.

The target in one experiment is T1, GFP-Snapin-S50D (UniProt O95295).
T1 sequence: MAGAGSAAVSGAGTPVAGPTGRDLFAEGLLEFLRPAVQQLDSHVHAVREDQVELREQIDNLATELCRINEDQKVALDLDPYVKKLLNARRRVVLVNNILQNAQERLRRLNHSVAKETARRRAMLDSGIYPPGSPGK
Put plainly: co-IP.

The target of another experiment is T2, GFP-Snapin-S50A (UniProt O95295).
T2 sequence: T1 sequence with D50A
In words: co-IP.

Positions count from the first letter of the chain named. These are yes or no findings as the source states them, for the method shown. Binding seen in cells or lysates may run through a third protein. For some assays here: Binding can be weak; no strength is given. Sequences can lack the tags named with a protein.

Consider “Dynein intermediate chain (endogenous, HEK293T) (human (endogenous in HEK293T))”, for which the results for the binding result with GFP-Snapin-S50D and in the experiment with GFP-Snapin-S50A were “no binding” and “binds”, respectively.
